Earlier results in patent US7390507B2, “Compositions and methods for the treatment of radiation burns and other traumatic skin conditions” (priority 2004, dated 2008).
At least one structure is not confirmed: it was looked up by name or label, or the drawing left a doubt.

What was measured:
[1] = system: Syrian hamster embryos exposed to radiation in utero; details: animal studies
[2] = oral administration

SMILES: CCCCC(C)(O)C/C=C/[C@H]1[C@H](O)CC(=O)[C@@H]1CCCCCCC(=O)OC (mixture of isomers) [Misoprostol]
- radioprotection [1]: effective radioprotector
- prevention of oral mucositis [2]: inconsistent results
